This note sets out measurements from paper PMC6795473.

Results are given in words; binding and its absence hold for the method and conditions named. Binding seen in cells or lysates may run through a third protein. Here binding means that the protein was enriched with, or labelled near, the bait; the list need not be complete. Tags and fused reporters may be left off the sequences shown.

The test addresses IMC localizing protein 1 (ILP1) with C-terminal 3xHA, wild type (T. gondii). As to the kind of experiment: affinity purification with mass spectrometry; traditional anti-HA co-IP of ILP1-3xHA after fractionation in 1% Triton X-100 and extensive sonication of the pellet; a gel slice with a unique band analysed by mass spectrometry; RH parasites as control.

B1: GAP45 (endogenous glideosome-associated protein) (protein, UniProt Q7Z289 1-245)
chain: MGNACKKNTAKTPTRKEAEDLAEKERQEREAKEKAEAEEKARAEAEKNAADKAEAERRAAEAREREESARKEAEAEAARKAEAEAAEAERLRKEAEKKKAEEAKRKAEEEQRAAAEEAEQRAREEAERRKAEAAAAAERERQMQEALKQEEMSPREKYDKLASPEDSASETTMATQPQKVAEHSSAAVTDRSVVGYTVTPCDMAAIDETAKYLSKRCGCDLGDQHDENECPICRHIDLSDAPLLN
As to B1, the binding result is reported as “binds”.

B2: IMC6 (endogenous alveolin, untagged) (protein, UniProt S8F8Q1 1-444)
chain: MAQTAPNQSAPTSGFSPMASMGSFAVPSAPPSPLFPTPAAFPGAAPQSQTVPGVATMGSVAGSEVTPFPMYNWHQNRVPVNSGGFFGQCCGPAQVGSDSSSETYDRSYEENMWRWTRDGKLQLRCGQPVVPVPVIQEIHRRDKIIEVPQVDVVDAVRPKVYNQGVEHEVPVMQINADHEDFDVEQIKYVEKEVVVPIVTGFTHKFVAKWDIREVPRPVVKYVGKQEEIEVEVPQVKFVDKVVEHEVVVDTIEKKVPKIIEVPKYVDEVKYVWTPVEKIVHVERFVPVFDVSLECPAPLIVPYPMQAVKEMPAVMVRKEVPEAAITEQGFDIVSPPGTLRVSDEYVRAHHQFAEENAALCGAGTACGAPQKEPEIEFRTANQMKEARAAAQEGHLERGGSFVSQVGTESQVPRPAATDEQAEGSADAGDKQGSRGSSFNSEGEVH
Consider B2, for which the binding result is “binds”.
